Results reported in PMC10617769, “Dietary potassium stimulates Ppp1Ca-Ppp1r1a dephosphorylation of kidney NaCl cotransporter and reduces blood pressure” (The Journal of Clinical Investigation, 2023).

Biological target: T1, GST fusion protein of the cytoplasmic amino terminus of rat NCC (amino acids 1-133) (rat) (UniProt P55018)
T1 sequence: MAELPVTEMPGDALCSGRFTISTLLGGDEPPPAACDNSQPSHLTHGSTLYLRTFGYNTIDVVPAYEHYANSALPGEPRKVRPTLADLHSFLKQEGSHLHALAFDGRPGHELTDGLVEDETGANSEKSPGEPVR
Assay: pull-down; GST-(N) NCC or GST alone on glutathione-agarose beads with 2–10 μg recombinant phosphatase; 12- to 18-hour incubation in PBS with 0.5 mM TCEP at 4°C; bound protein detected by Western blotting; both purified

binding: no binding (tested: 2–10 μg)
Substance: recombinant PP2A (enzyme)

These are yes or no findings as the source states them, for the method shown. Where a sequence is shown, tags or fusion partners need not be part of it.
